Source: PubChem BioAssay AID1159584 (Peter MacCallum Cancer Centre, 2016)
In all, the deposit lists about 18,000 reagents; below is an unselected part. The record does not give: the amount of reagent, the time to read-out.

- Aim: 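Knock-downs that harm CDH1-null cells more than parental MCF10A cells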 (primary screen)
- Cells: human MCF10A breast epithelial cells, parental and CDH1-null
- Knock-down reagent: siRNA against human genes
- Measurement: 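Cell viability by CellTiter-Glo ATP luminescence, each line scaled to the mean of mock wells across plates, then CDH1-null over parental ratio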
- Scale: CDH1-null / parental viability ratio: higher = CDH1-null cells survive relatively better than parental; CDH1-null viability vs mock: higher = more viable CDH1-null cells; parental viability vs mock: higher = more viable parental cells

Gene | CDH1-null / parental viability ratio | CDH1-null viability vs mock (fraction of mock) | parental viability vs mock (fraction of mock)
ZBTB7B (GeneID 51043) | 1.11 | 0.71 | 0.64
TNP2 (GeneID 7142) | 1.66 | 0.58 | 0.35
FKBP9 (GeneID 11328) | 0.83 | 0.87 | 1.05
CHSY1 (GeneID 22856) | 1.08 | 1.1 | 1.02
PCCA (GeneID 5095) | 0.8 | 0.74 | 0.92
RLBP1 (GeneID 6017) | 0.91 | 0.67 | 0.74
PCDHA13 (GeneID 56136) | 1.11 | 0.4 | 0.36
UBA6 (GeneID 55236) | 1.09 | 0.98 | 0.9
MS4A14 (GeneID 84689) | 1.62 | 0.6 | 0.37
UBE4A (GeneID 9354) | 1 | 0.5 | 0.5
USP50 (GeneID 373509) | 1.15 | 0.93 | 0.81
KNOP1 (GeneID 400506) | 1.14 | 0.84 | 0.74
GAS2L1 (GeneID 10634) | 0.89 | 0.55 | 0.62
NUP210 (GeneID 23225) | 1.14 | 0.91 | 0.8
DKKL1 (GeneID 27120) | 1.06 | 0.89 | 0.84
BMPR1A (GeneID 657) | 0.95 | 0.84 | 0.88
TSEN2 (GeneID 80746) | 0.99 | 0.9 | 0.91
CAV1 (GeneID 857) | 0.93 | 1.02 | 1.1
CDK2 (GeneID 1017) | 0.75 | 0.72 | 0.96
EGR3 (GeneID 1960) | 1.06 | 0.92 | 0.87
GRIN3A (GeneID 116443) | 1.27 | 0.9 | 0.71
CLIC3 (GeneID 9022) | 1.24 | 1.09 | 0.88
BMP10 (GeneID 27302) | 1.95 | 0.8 | 0.41
SOS2 (GeneID 6655) | 1.39 | 0.78 | 0.56
MAP1B (GeneID 4131) | 0.78 | 0.74 | 0.95
ZNF215 (GeneID 7762) | 1.16 | 1.06 | 0.91
HPS1 (GeneID 3257) | 0.91 | 0.86 | 0.94
FOXN3 (GeneID 1112) | 0.93 | 0.8 | 0.86
HEMGN (GeneID 55363) | 0.97 | 0.85 | 0.88
LDLRAD1 (GeneID 388633) | 0.85 | 0.78 | 0.92
SFTPA2 (GeneID 729238) | 0.66 | 0.46 | 0.7
DDX10 (GeneID 1662) | 1.21 | 0.99 | 0.82
MRPL4 (GeneID 51073) | 1.49 | 0.76 | 0.51
OR4F3 (GeneID 26683) | 1.67 | 1.1 | 0.66
XPA (GeneID 7507) | 0.94 | 0.77 | 0.82
CCNL2 (GeneID 81669) | 1.25 | 0.9 | 0.72
PGAP6 (GeneID 58986) | 0.92 | 0.74 | 0.8
OR9G4 (GeneID 283189) | 1.08 | 1.1 | 1.02
RPGRIP1 (GeneID 57096) | 0.86 | 0.48 | 0.56
CSRNP1 (GeneID 64651) | 1.07 | 0.32 | 0.3
CENPW (GeneID 387103) | 1.06 | 0.72 | 0.68
FXYD4 (GeneID 53828) | 1.24 | 1.07 | 0.86
ATG16L1 (GeneID 55054) | 0.97 | 0.94 | 0.97
TPK1 (GeneID 27010) | 1.02 | 0.82 | 0.8
NSUN3 (GeneID 63899) | 0.59 | 0.58 | 0.99
ZDHHC19 (GeneID 131540) | 1.04 | 0.77 | 0.74
EXOSC5 (GeneID 56915) | 1.03 | 0.7 | 0.68
SP110 (GeneID 3431) | 1.5 | 0.66 | 0.44
SEC14L3 (GeneID 266629) | 0.73 | 0.58 | 0.79
LGALS8 (GeneID 3964) | 1.03 | 0.9 | 0.87
FOXF2 (GeneID 2295) | 0.99 | 0.91 | 0.92
SDHAF3 (GeneID 57001) | 1 | 0.7 | 0.7
GPR61 (GeneID 83873) | 1.41 | 1 | 0.71
AK2 (GeneID 204) | 0.87 | 0.82 | 0.94
RIMKLB (GeneID 57494) | 0.96 | 1.04 | 1.08
SMC1B (GeneID 27127) | 1.11 | 1.07 | 0.96
PPARA (GeneID 5465) | 0.96 | 1.11 | 1.16
RERE (GeneID 473) | 0.64 | 0.62 | 0.97
TSC22D4 (GeneID 81628) | 0.81 | 0.86 | 1.06
TPM4 (GeneID 7171) | 0.97 | 0.83 | 0.86
WDR36 (GeneID 134430) | 1.19 | 0.7 | 0.59
SYNGR1 (GeneID 9145) | 1.07 | 0.32 | 0.3
FLVCR2 (GeneID 55640) | 1.24 | 0.52 | 0.42
RAB39A (GeneID 54734) | 1.13 | 0.61 | 0.54
LRP1 (GeneID 4035) | 1.13 | 0.69 | 0.61
ERAP2 (GeneID 64167) | 0.92 | 0.9 | 0.98
KRT84 (GeneID 3890) | 0.76 | 0.52 | 0.68
ATP6V1E2 (GeneID 90423) | 0.95 | 0.84 | 0.88
